Measured values reported in the supplement of paper PMC8728848.
Some of the results follow.

Legend:
Assay in all cases: glycan array binding signal (z-score within array); higher = stronger binding
Conditions in all cases: glycan notation: IUPAC condensed, linker removed
[1] = molecular target: Gal(b1-4)GlcNAc(b1-3)Gal(b1-4)GlcNAc(b1-2)Man(a1-3)[Gal(b1-4)GlcNAc(b1-3)Gal(b1-4)GlcNAc(b1-2)Man(a1-6)]Man(b1-4)GlcNAc(b1-4)[Fuc(a1-6)]GlcNAc
Outline: (§1)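 Columns mapping to the same glycan were averaged after glycan names were converted to IUPAC-condensed notation. The data come from 3228 arrays in the Consortium for Functional Glycomics database, limited to those with an available protein sequence. Binding is reported as a within-array Z-score averaged across arrays of one protein sequence and across linkers.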

[2] = molecular target: Gal(b1-4)GlcNAc(b1-3)Gal(b1-4)GlcNAc(b1-2)[Gal(b1-4)GlcNAc(b1-3)Gal(b1-4)GlcNAc(b1-6)]Man(a1-6)[Gal(b1-4)GlcNAc(b1-3)Gal(b1-4)GlcNAc(b1-2)Man(a1-3)]Man(b1-4)GlcNAc(b1-4)GlcNAc
Outline: as §1

[3] = molecular target: Gal(b1-4)GlcNAc(b1-3)Gal(b1-4)GlcNAc(b1-2)[Gal(b1-4)GlcNAc(b1-3)Gal(b1-4)GlcNAc(b1-6)]Man(a1-6)[Gal(b1-4)GlcNAc(b1-3)Gal(b1-4)GlcNAc(b1-2)Man(a1-3)]Man(b1-4)GlcNAc(b1-4)[Fuc(a1-6)]GlcNAc
Outline: as §1

[4] = molecular target: Gal(b1-4)GlcNAc(b1-3)Gal(b1-4)GlcNAc(b1-3)Gal(b1-4)GlcNAc
Outline: as §1

[5] = molecular target: Gal(b1-4)GlcNAc(b1-3)Gal(b1-4)GlcNAc(b1-3)Gal(b1-4)GlcNAc(b1-2)Man(a1-3)[Gal(b1-4)GlcNAc(b1-3)Gal(b1-4)GlcNAc(b1-3)Gal(b1-4)GlcNAc(b1-2)Man(a1-6)]Man(b1-4)GlcNAc(b1-4)GlcNAc
Outline: as §1

[6] = molecular target: Gal(b1-4)GlcNAc(b1-3)Gal(b1-4)GlcNAc(b1-3)Gal(b1-4)GlcNAc(b1-2)Man(a1-3)[Gal(b1-4)GlcNAc(b1-3)Gal(b1-4)GlcNAc(b1-3)Gal(b1-4)GlcNAc(b1-2)Man(a1-6)]Man(b1-4)GlcNAc(b1-4)[Fuc(a1-6)]GlcNAc
Outline: as §1

[7] = molecular target: Gal(b1-4)GlcNAc(b1-3)Gal(b1-4)GlcNAc(b1-3)Gal(b1-4)GlcNAc(b1-2)[Gal(b1-4)GlcNAc(b1-3)Gal(b1-4)GlcNAc(b1-3)Gal(b1-4)GlcNAc(b1-6)]Man(a1-6)[Gal(b1-4)GlcNAc(b1-3)Gal(b1-4)GlcNAc(b1-3)Gal(b1-4)GlcNAc(b1-2)Man(a1-3)]Man(b1-4)GlcNAc(b1-4)[Fuc(a1-6)]GlcNAc
Outline: as §1

[8] = molecular target: Gal(b1-4)GlcNAc(b1-3)Gal(b1-4)GlcNAc(b1-3)Gal(b1-4)GlcNAc(b1-3)Gal(b1-4)GlcNAc(b1-2)Man(a1-3)[Gal(b1-4)GlcNAc(b1-3)Gal(b1-4)GlcNAc(b1-3)Gal(b1-4)GlcNAc(b1-3)Gal(b1-4)GlcNAc(b1-2)Man(a1-6)]Man(b1-4)GlcNAc(b1-4)GlcNAc
Outline: as §1

[9] = molecular target: Gal(b1-4)GlcNAc(b1-3)Gal(b1-4)GlcNAc(b1-3)Gal(b1-4)GlcNAc(b1-3)Gal(b1-4)GlcNAc(b1-2)Man(a1-3)[Gal(b1-4)GlcNAc(b1-3)Gal(b1-4)GlcNAc(b1-3)Gal(b1-4)GlcNAc(b1-3)Gal(b1-4)GlcNAc(b1-2)Man(a1-6)]Man(b1-4)GlcNAc(b1-4)[Fuc(a1-6)]GlcNAc
Outline: as §1

[10] = molecular target: Gal(b1-4)GlcNAc(b1-3)Gal(b1-4)GlcNAc(b1-3)Gal(b1-4)GlcNAc(b1-3)Gal(b1-4)GlcNAc(b1-2)[Gal(b1-4)GlcNAc(b1-3)Gal(b1-4)GlcNAc(b1-3)Gal(b1-4)GlcNAc(b1-3)Gal(b1-4)GlcNAc(b1-6)]Man(a1-6)[Gal(b1-4)GlcNAc(b1-3)Gal(b1-4)GlcNAc(b1-3)Gal(b1-4)GlcNAc(b1-3)Gal(b1-4)GlcNAc(b1-2)Man(a1-3)]Man(b1-4)GlcNAc(b1-4)[Fuc(a1-6)]GlcNAc
Outline: as §1

[11] = molecular target: Gal(b1-4)GlcNAc(b1-3)Gal(b1-4)GlcNAc(b1-3)Gal(b1-4)GlcNAc(b1-3)Gal(b1-4)GlcNAc(b1-3)Gal(b1-4)GlcNAc(b1-2)Man(a1-3)[Gal(b1-4)GlcNAc(b1-3)Gal(b1-4)GlcNAc(b1-3)Gal(b1-4)GlcNAc(b1-3)Gal(b1-4)GlcNAc(b1-3)Gal(b1-4)GlcNAc(b1-2)Man(a1-6)]Man(b1-4)GlcNAc(b1-4)GlcNAc
Outline: as §1

[12] = molecular target: Gal(b1-4)GlcNAc(b1-3)Gal(b1-4)GlcNAc(b1-3)Gal(b1-4)GlcNAc(b1-3)Gal(b1-4)GlcNAc(b1-3)Gal(b1-4)GlcNAc(b1-2)Man(a1-3)[Gal(b1-4)GlcNAc(b1-3)Gal(b1-4)GlcNAc(b1-3)Gal(b1-4)GlcNAc(b1-3)Gal(b1-4)GlcNAc(b1-3)Gal(b1-4)GlcNAc(b1-2)Man(a1-6)]Man(b1-4)GlcNAc(b1-4)[Fuc(a1-6)]GlcNAc
Outline: as §1

[13] = molecular target: Gal(b1-4)GlcNAc(b1-3)Gal(b1-4)GlcNAc(b1-3)Gal(b1-4)GlcNAc(b1-3)Gal(b1-4)GlcNAc(b1-3)Gal(b1-4)GlcNAc(b1-2)[Gal(b1-4)GlcNAc(b1-3)Gal(b1-4)GlcNAc(b1-3)Gal(b1-4)GlcNAc(b1-3)Gal(b1-4)GlcNAc(b1-3)Gal(b1-4)GlcNAc(b1-6)]Man(a1-6)[Gal(b1-4)GlcNAc(b1-3)Gal(b1-4)GlcNAc(b1-3)Gal(b1-4)GlcNAc(b1-3)Gal(b1-4)GlcNAc(b1-3)Gal(b1-4)GlcNAc(b1-2)Man(a1-3)]Man(b1-4)GlcNAc(b1-4)[Fuc(a1-6)]GlcNAc
Outline: as §1

[14] = molecular target: Gal(b1-4)GlcNAc(b1-3)Gal(b1-4)GlcNAc(b1-3)Gal(b1-4)GlcNAc(b1-3)Gal(b1-4)GlcNAc(b1-3)Gal(b1-4)GlcNAc(b1-3)Gal(b1-4)GlcNAc(b1-2)Man(a1-3)[Gal(b1-4)GlcNAc(b1-3)Gal(b1-4)GlcNAc(b1-3)Gal(b1-4)GlcNAc(b1-3)Gal(b1-4)GlcNAc(b1-3)Gal(b1-4)GlcNAc(b1-3)Gal(b1-4)GlcNAc(b1-2)Man(a1-6)]Man(b1-4)GlcNAc(b1-4)GlcNAc
Outline: as §1

[15] = molecular target: Gal(b1-4)GlcNAc(b1-3)Gal(b1-4)GlcNAc(b1-3)GalNAc
Outline: as §1

[16] = molecular target: Gal(b1-4)GlcNAc(b1-3)Gal(b1-4)GlcNAc(b1-3)[Gal(b1-4)GlcNAc(b1-3)Gal(b1-4)GlcNAc(b1-6)]GalNAc
Outline: as §1

[17] = molecular target: Gal(b1-4)GlcNAc(b1-3)Gal(b1-4)GlcNAc(b1-6)[Gal(b1-3)]GalNAc
Outline: as §1

[18] = molecular target: Gal(b1-4)GlcNAc(b1-3)Gal(b1-4)[Fuc(a1-3)]GlcNAc(b1-3)Gal(b1-4)[Fuc(a1-3)]GlcNAc
Outline: as §1

[19] = molecular target: Gal(b1-4)GlcNAc(b1-3)GalNAc
Outline: as §1

[20] = molecular target: Gal(b1-4)GlcNAc(b1-3)[Fuc(a1-3)GlcNAc(b1-6)]Gal(b1-4)Glc
Outline: as §1

[21] = molecular target: Gal(b1-4)GlcNAc(b1-3)[Gal(b1-4)GlcNAc(b1-6)]Gal(b1-4)GlcNAc
Outline: as §1

[22] = molecular target: Gal(b1-4)GlcNAc(b1-3)[GlcNAc(b1-6)]Gal(b1-4)GlcNAc
Outline: as §1

[23] = molecular target: Gal(b1-4)GlcNAc(b1-6)Gal(b1-4)GlcNAc
Outline: as §1

[24] = molecular target: Gal(b1-4)GlcNAc(b1-6)GalNAc
Outline: as §1

[25] = molecular target: Gal(b1-4)GlcNAc(b1-6)[Gal(b1-3)]GalNAc
Outline: as §1

[26] = molecular target: Gal(b1-4)GlcNAc(b1-6)[Gal(b1-4)GlcNAc(b1-3)]GalNAc
Outline: as §1

Gal(b1-4)GlcNAc6P = molecular target: Gal(b1-4)GlcNAc6P
Outline: as §1

Gal(b1-6)Gal = molecular target: Gal(b1-6)Gal
Outline: as §1

Gal3S(b1-3)GalNAc = molecular target: Gal3S(b1-3)GalNAc
Outline: as §1

Gal3S(b1-3)GlcNAc = molecular target: Gal3S(b1-3)GlcNAc
Outline: as §1

B1: SHCBP1-GST (Homo sapiens), Q8NEM2 (protein)
chain: MADGSLTGGGLEAAAMAPERMGWAVEQELASLEKGLFQDEDSCSDCSYRDKPGSSLQSFMPEGKTFFPEIFQTNQLLFYERFRAYQDYILADCKASEVQEFTAEFLEKVLEPSGWRAVWHTNVFKVLVEITDVDFAALKAVVRLAEPYLCDSQVSTFTMECMKELLDLKEHRLPLQELWVVFDDSGVFDQTALAIEHVRFFYQNIWRSWDEEEEDEYDYFVRCVEPRLRLHYDILEDRVPSGLIVDYHNLLSQCEESYRKFLNLRSSLSNCNSDSEQENISMVEGLKLYSEMEQLKQKLKLIENPLLRYVFGYQKNSNIQAKGVRSSGQKITHVVSSTMMAGLLRSLLTDRLCQEPGEEEREIQFHSDPLSAINACFEGDTVIVCPGHYVVHGTFSIADSIELEGYGLPDDIVIEKRGKGDTFVDCTGADIKISGIKFVQHDAVEGILIVHRGKTTLENCVLQCETTGVTVRTSAEFLMKNSDLYGAKGAGIEIYPGSQCTLSDNGIHHCKEGILIKDFLDEHYDIPKISMVNNIIHNNEGYGVVLVKPTIFSDLQENAEDGTEENKALKIQTSGEPDVAERVDLEELIECATGKMELCARTDPSEQVEGNCEIVNELIAASTQKGQIKKKRLSELGITQADDNLMSQEMFVGIVGNQFKWNGKGSFGTFLF
glycan array binding signal (z-score) [1]: 0.801
glycan array binding signal (z-score) [2]: 0.567
glycan array binding signal (z-score) [3]: 2.1
glycan array binding signal (z-score) [4]: -0.703
glycan array binding signal (z-score) [5]: 1.59
glycan array binding signal (z-score) [6]: 1.54
glycan array binding signal (z-score) [7]: 0.985
glycan array binding signal (z-score) [8]: 1.2
glycan array binding signal (z-score) [9]: 3.03
glycan array binding signal (z-score) [10]: 0.056
glycan array binding signal (z-score) [11]: 0.681
glycan array binding signal (z-score) [12]: 1.46
glycan array binding signal (z-score) [13]: 0.757
glycan array binding signal (z-score) [14]: 1.59
glycan array binding signal (z-score) [15]: 0.849
glycan array binding signal (z-score) [16]: 1.18
glycan array binding signal (z-score) [17]: 1.32
glycan array binding signal (z-score) [18]: 0.48
glycan array binding signal (z-score) [19]: -0.27
glycan array binding signal (z-score) [20]: -0.264
glycan array binding signal (z-score) [21]: -0.723
glycan array binding signal (z-score) [22]: -0.481
glycan array binding signal (z-score) [23]: 0.489
glycan array binding signal (z-score) [24]: 0.45
glycan array binding signal (z-score) [25]: 0.23
glycan array binding signal (z-score) [26]: -0.149
glycan array binding signal (z-score) (Gal(b1-4)GlcNAc6P): 0.043
glycan array binding signal (z-score) (Gal(b1-6)Gal): -0.824
glycan array binding signal (z-score) (Gal3S(b1-3)GalNAc): -0.165
glycan array binding signal (z-score) (Gal3S(b1-3)GlcNAc): 0.719
